The values below come from PubChem BioAssay AID2685 (National Center for Advancing Translational Sciences (NCATS), 2010).

The nature of this experiment: qHTS Assay for Lipid Storage Modulators in Drosophila S3 Cells.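 On cell number change: cells counted by Cell Tracker Red CMTPX staining in the red channel.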 The note with it: BODIPY lipid droplet fluorescence, 18-24 h; for cell number change: measured here: cell count max response, cells fed with added oleic acid. The essentials:
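Drosophila S3 cells loaded with oleic acid (400 uM, as added) and compounds at several concentrations; lipid droplets imaged by 488-nm laser-scanning cytometry, 500–530 nm intensity and object ratio to cell channel. Percent activity normalized to 20 uM Triacsin C.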

Where [1] appears, read: measured here: lipid fluorescence (Fed channel) AC50, cells fed with added oleic acid.
[2] abbreviates: measured here: cell number channel AC50, cells fed with added oleic acid.

The list shows a part of the results. Shown are side measurements of this screen, not its main read-out; they come without a call. The list favours compounds with an active or inconclusive main result. The note in brackets gives the kind of curve behind each potency; many fits are weak.

As to `Cc1ccc(S(=O)(=O)c2nnn3c2nc(N2CCOCC2)c2ccccc23)cc1`, the cell number change is -23.2%. The AC50 under setting [1] is 6.51 µM [falling, single point]. With `CCOc1ccc2nc(NC(=O)C(NS(=O)(=O)c3cccs3)C(C)C)sc2c1` (stereo unspecified), the AC50 under setting [1] was 0.58 µM [rising, single point]. As for `COC(=O)c1cc(Br)c(=O)n(Cc2cccnc2)c1`, the cell number change came out at 50.3%. Under setting [2], the AC50 is 0.92 µM [rising, full curve]. Besides, under setting [1], the AC50 is 0.146 µM [rising, full curve, poor fit]. Take `COc1ccc(C2CC(c3cc(Br)ccc3F)n3nnnc3N2)cc1` (stereo unspecified): the cell number change is -12.7%. The concentration at half-maximal activity (AC50) under setting [1] is 18.4 µM [rising, single point]. Regarding `CCOC(=O)c1cc[n+](CC(=O)c2ccc(F)cc2)cc1`, the cell number change was 86.3%. Moreover, the concentration at half-maximal activity (AC50) under setting [2] was 18.4 µM [rising, single point]. For the same compound, the AC50 under setting [1] was 20.6 µM [rising, single point]. On to `CC(=O)c1c(Cl)nc2cccc3c2c1-c1ccccc1C3=O`, for which the cell number change came to 9.46%. Also, the AC50 under setting [1] is 18.4 µM [falling, single point]. For the compound `COC(=O)c1oc2nc(C)cc(C)c2c1N`, the cell number change was 4.1%. In addition, the AC50 under setting [1] is 2.06 µM [rising, partial curve]. As for `COc1ccc(NS(=O)(=O)c2ccc(N3CCCC3)c(NC(=S)Nc3cccc(S(=O)(=O)N(C)C)c3)c2)cc1`, the cell number change is 1%. The AC50 under setting [1] is 0.731 µM [rising, single point]. For the compound `CCN(CC)C(=O)c1cn(-c2cccc(OC)c2)c(=O)c2ccccc12`, the cell number change is -25.4%. In addition, under setting [2], the AC50 was 2.59 µM [falling, full curve, poor fit]. As for `Cc1nn(-c2ccccc2)c(CC(C)(C)C(=O)O)c1C(=O)O`, the cell number change was 17.2%. In addition, under setting [1], the AC50 was 0.82 µM [falling, full curve].

As to `O=C(Nc1ccccn1)C1CCN(C(=O)c2ccc(F)cc2)CC1`, the cell number change is 28%. Also, the AC50 under setting [1] is 8.2 µM [rising, partial curve]. For the compound `CSc1nnc2n(-c3ccc(C)cc3)c(=O)c3c4c(sc3n12)COC(C(C)C)C4` (stereo unspecified), the cell number change turned out to be 18%. In addition, the AC50 under setting [1] is 6.51 µM [falling, single point]. As for `CC(C)c1ccc(NC(=O)C(c2ccccc2)N2CCN(C(=O)c3ccco3)CC2)cc1` (stereo unspecified), under setting [1], the AC50 was 25.9 µM [falling, partial curve, poor fit].

In the case of `O=C(Nc1cccc(F)c1)NC1(C(=O)N2CCOCC2)CCCCC1`, the AC50 by setting is: under setting [2], 6.51 µM [falling, single point]; under setting [1], 6.51 µM [falling, single point]. For `O=C(Nc1ncn[nH]1)c1cc(S(=O)(=O)Nc2cccc(C(F)(F)F)c2)ccc1Cl`, the cell number change was -0.616%. With `COc1ccc(C2C(C(C)=O)=C(O)C(=O)N2C)c(OC)c1` (stereo unspecified), the cell number change was -24.6%. Moreover, the AC50 under setting [1] was 6.51 µM [falling, single point]. Consider `COc1cccc(NS(=O)(=O)c2ccc3c(c2)NC(=O)CC(=O)N3)c1`, for which the cell number change was -10.1%. For the same compound, under setting [1], the AC50 was 29.1 µM [rising, single point]. On to `COc1ccc(N2C(=O)NC(=O)C2=O)cc1`, for which the cell number change was 18%. Also, the AC50 under setting [2] was 0.0231 µM [rising, full curve, poor fit]. In the case of `CCN(CC(O)Cn1c2ccccc2c2ccccc21)S(=O)(=O)c1ccc(C)cc1` (stereo unspecified), the cell number change was -60.2%. Under setting [2], the AC50 is 20.6 µM [falling, single point]. `CCCC(=O)Nc1cccc(Oc2ccc3c(c2)C(=O)NC3=O)c1`: under setting [1], the AC50 is 1.16 µM [falling, full curve].

Take `O=C(CNC(=O)c1ccccc1)OCC(=O)c1ccccc1Cl`: the cell number change is -6.29%. Take `COc1ccc(OC)c(NC(=O)CCc2c[nH]c3ccccc23)c1`: the AC50 under setting [1] was 0.116 µM [falling, full curve, poor fit]. As for `Cn1c(=O)c2c(ncn2CC(COCc2ccccc2Cl)OCc2ccccc2Cl)n(C)c1=O` (stereo unspecified), the cell number change came out at 39.7%. As to `COc1cc(S(=O)(=O)N(Cc2ccc(C)cc2)Cc2ccco2)ccc1-n1cnnn1`, the cell number change was -2.08%. Under setting [1], the AC50 is 0.116 µM [falling, partial curve, poor fit]. Take `O=C(Cc1c[nH]c2ccccc12)NCc1ccc2c(c1)OCO2`: the cell number change stood at 0.61%. Also, the AC50 under setting [1] is 0.116 µM [rising, full curve, poor fit]. Turning to `CC(C)(C)c1csc(NC(=O)c2ccccc2O)n1`, the cell number change was -23.7%. Turning to `COc1ccc(-c2nc(CN3CCC(C(=O)N4CCOCC4)CC3)c(C)o2)cc1OC`, the cell number change was -5.19%. For the same compound, the AC50 under setting [1] is 29.1 µM [rising, single point]. Turning to `O=C(c1cc(COc2c(F)cccc2F)on1)N1CCC(c2ccccc2F)C1` (stereo unspecified), the cell number change is -20.9%. The AC50 under setting [1] was 29.1 µM [falling, single point]. With `CCCCOC(=S)NC(=O)c1sc2ccccc2c1Cl`, the cell number change was -10.3%. Besides, the half-maximal activity concentration (AC50) under setting [1] was 2.31 µM [falling, full curve, poor fit]. In the case of `O=C(O)c1ccc(-c2sc(Nc3ccccc3)n[n+]2-c2ccccc2)cc1`, the cell number change is 15.2%. Moreover, the AC50 under setting [1] is 0.461 µM [rising, full curve, poor fit]. Take `CCC(C)NC(=O)c1cn(-c2cccc(OC)c2)c(=O)c2ccccc12` (stereo unspecified): the cell number change is -5.67%. The AC50 under setting [1] was 0.0651 µM [rising, full curve, poor fit]. For the compound `Cc1cc(O)cc(O)c1C(=O)Cc1cnn(-c2ccccc2)c1`, the cell number change is -17.3%. Under setting [1], the AC50 was 29.1 µM [rising, partial curve]. As to `O=C(N/N=C/c1cc2c(cc1Cl)OCO2)c1cc(-c2ccccc2)n[nH]1`, the cell number change was found to be 41.6%. For the same compound, the AC50 under setting [2] was 5.17 µM [rising, partial curve, poor fit]. In the case of `COc1ccc(C2/C=C\CN(CC(C)C)CC(=O)N2Cc2ccc(F)cc2)cc1` (stereo unspecified), under setting [1], the AC50 was 11.6 µM [rising, partial curve]. Regarding `CC(NC(=O)c1ccco1)C(=O)NC(C)c1cc(F)c(Cl)cc1Cl` (stereo unspecified), the cell number change stood at 29.4%. Besides, the AC50 under setting [1] is 0.58 µM [rising, single point]. As for `CCCn1c(SCC(=O)NCc2ccc3c(c2)OCO3)n[nH]c1=O`, the cell number change was found to be 3.16%. Also, the AC50 under setting [1] was 0.461 µM [falling, partial curve, poor fit]. Regarding `Cc1cc(C(=O)N/N=C/c2sc(N3CCOCC3)nc2-c2ccccc2)c(C)o1`, the cell number change was -0.88%.

As for `CCCS(=O)(=O)c1cnc(C2COc3ccccc3O2)nc1N` (stereo unspecified), the cell number change came out at 21.6%. Also, the AC50 under setting [1] was 8.2 µM [rising, partial curve].

As for `CN(C(=O)CSc1ccc(S(=O)(=O)N2CCCCC2)cn1)c1ccccc1`, the cell number change was -10.4%. In addition, the concentration at half-maximal activity (AC50) under setting [1] is 0.184 µM [falling, full curve, poor fit]. Regarding `O=C(CCC1CCCN(C(=O)C2CCCC2)C1)NCc1ccc(F)c(F)c1` (stereo unspecified), the cell number change is -26.1%. Further, the AC50 under setting [1] is 18.4 µM [falling, partial curve].

As to `CN(CCOc1ccccc1)C(=O)c1ccc2c(c1)OCO2`, the cell number change is -1.96%. Moreover, the AC50 under setting [2] is 0.00411 µM [falling, full curve, poor fit]. On to `CN(CCC#N)C(=O)CC1(Cc2ccccc2)CCOC(C)(C)C1` (stereo unspecified), for which the cell number change is -3.52%. On to `O=C(NCc1ccccn1)c1cc(-c2ccccc2Cl)nc2ccccc12`, for which the cell number change was found to be 63.4%. In addition, the AC50 under setting [2] is 18.4 µM [rising, single point]. In addition, under setting [1], the AC50 is 7.31 µM [falling, single point]. In the case of `C=CCSc1nc(N)c2c(C)c(C)sc2n1`, the cell number change was 5.93%. For the same compound, the AC50 under setting [1] is 1.16 µM [rising, full curve].

For the compound `CCn1c(CSc2nc(C)cc(C)n2)nnc1SCC(=O)Nc1nc(-c2ccccc2)cs1`, the cell number change is -3.64%. Further, under setting [1], the AC50 was 0.651 µM [rising, full curve]. Turning to `O=C(c1ccco1)N1CCN(Cc2cc(=O)c(OCc3ccc([N+](=O)[O-])cc3)co2)CC1`, the cell number change was determined as 44.1%. Under setting [2], the AC50 was 8.2 µM [rising, partial curve, poor fit]. For `Cc1cc(SC#N)cc(C)c1NC(=O)CCl`, the cell number change was -1.63%. As to `Cc1cc(NC(=O)CCC(=O)N(Cc2ccccc2)C(C(=O)NC2CCCC2)c2ccc(C)o2)no1` (stereo unspecified), the cell number change is -23.1%. Moreover, under setting [1], the AC50 was 29.1 µM [rising, single point]. In the case of `C=C(C)[C@@H]1CC=C(CN2CCC(N3CCC(C(=O)N4CCCC4)CC3)CC2)CC1`, the cell number change was -17.6%. For the same compound, the AC50 under setting [1] is 29.1 µM [falling, single point]. As to `CCOc1ccc(/C=C(\C#N)C(=O)c2c(C)[nH]c3ccccc23)cc1OC`, the AC50 under setting [1] was 0.291 µM [rising, single point].

Consider `CC(C)CS(=O)(=O)C1=NSC2=NC(=O)/C(=C\c3ccc(OC(=O)c4ccco4)cc3)C(=N)N21`, for which the cell number change was -23.8%. For the same compound, under setting [1], the AC50 was 29.1 µM [falling, single point].

On to `Cc1cc(=S)nc(-c2ccccn2)[nH]1`, for which the cell number change is -4.65%. As for `CN(CC(=O)Nc1cccc(F)c1)C(=O)c1cn(-c2ccccc2)nc1-c1ccccc1`, the AC50 under setting [1] was 29.1 µM [falling, single point]. For the compound `CSC1=NC(=O)/C(=C\c2cccc3ccccc23)S1`, the AC50 under setting [2] was 0.58 µM [rising, single point].

On to `Cc1cc(C)cc(NC(=S)N2C3CCCC2CC(NC(=O)C2CC2)C3)c1` (stereo unspecified), for which the cell number change is 8.97%. Consider `CCCn1c(C)cc(C(=O)CSc2nnc3n(CCC)c(=O)c4ccccc4n23)c1C`, for which the cell number change is -3.54%. In addition, the AC50 under setting [1] was 29.1 µM [falling, single point]. Consider `CCn1nc(C)c(CN2CCC(n3nccc3NC(=O)Cc3ccccc3)CC2)c1C`, for which the cell number change was -4.18%. For the same compound, the half-maximal activity concentration (AC50) under setting [1] was 5.17 µM [falling, single point]. For `COc1ccc(OC)c(S(=O)(=O)N(C)CC(=O)N2CCN(c3ccccc3F)CC2)c1`, the cell number change is 146%. In addition, under setting [2], the half-maximal activity concentration (AC50) was 4.61 µM [rising, partial curve]. Further, under setting [1], the concentration at half-maximal activity (AC50) is 2.59 µM [rising, partial curve].

With `Cc1ccc2c(Cl)cc(Cl)c(OCC(=O)N3CCOCC3)c2n1`, the cell number change is 22.3%. Also, under setting [1], the AC50 is 0.291 µM [rising, partial curve, poor fit]. Regarding `COc1cccc(OC)c1C(=O)Nc1ccc(N2CCN(C(=O)c3ccco3)CC2)cc1`, the cell number change was 5.13%.

For `O=C(CN1CCSCC1)N/N=C/c1ccc(F)cc1F`, the cell number change was -93%. Besides, the concentration at half-maximal activity (AC50) under setting [2] was 29.1 µM [falling, single point]. As to `COc1ccc(C2NCCc3c2[nH]c2ccccc32)cc1CSc1nc2ccccc2s1` (stereo unspecified), the cell number change was -94.4%. Moreover, the AC50 under setting [2] was 20.6 µM [falling, partial curve]. In addition, under setting [1], the half-maximal activity concentration (AC50) is 25.9 µM [falling, partial curve].
